Source: patent US9029337B2, “Modulation of factor 7 expression” (Isis Pharmaceuticals, Inc., priority 2007, dated 2015)
Some results were stated once for a whole list of compounds, not compound by compound. Strand notation (5' to 3'): a small letter for the sugar, then the base; units joined by * are phosphorothioate-linked, units joined directly phosphodiester-linked; [ ] holds rarer units or linkages, { } end groups; capitals alone tell only the bases. e = 2'-O-(2-methoxyethyl) (MOE); [5mC] = 5-methylcytosine; d = 2'-deoxy (DNA)

test system: human Factor 7 mRNA; assay: Antisense inhibition of human Factor 7 mRNA in HepB3 cells, 50 nM antisense oligonucleotide, lipofectin; format: cell-based; settings: Example 6 text (microwalk), approximately 24 hours
Protocol: Antisense oligonucleotides targeted to a Factor 7 nucleic acid were tested for their effects on Factor 7 mRNA in vitro. Cultured HepB3 cells at a density of 4,000 cells per well were transfected using lipofectin reagent with 50 nM antisense oligonucleotide. After a treatment period of approximately 24 hours, RNA was isolated from the cells and Factor 7 mRNA levels were measured by real-time RT-PCR, as described herein. Factor 7 mRNA levels were adjusted according to total RNA content as measured by RIBOGREEN®. Results are presented as percent inhibition of Factor 7, relative to untreated control cells.
(§1) Antisense oligonucleotides targeted to a Factor 7 nucleic acid were designed and tested for their effects on Factor 7 mRNA in vitro. Certain antisense oligonucleotides from Table 3 were also retested for their effects on Factor 7 mRNA in vitro. Cultured HepB3 cells at a density of 4,000 cells per well were transfected using lipofectin reagent with 50 nM antisense oligonucleotide. After a treatment period of approximately 24 hours, RNA was isolated from the cells and Factor 7 mRNA levels were measured by real-time RT-PCR, as described herein. Human Factor 7 primer probe set RTS 2927 was used to measure mRNA levels. Factor 7 mRNA levels were adjusted according to total RNA content as measured by RIBOGREEN®. Results are presented as percent inhibition of Factor 7, relative to untreated control.
as §1, with “tested” for “tested for their effects on Factor 7 mRNA in vitro. Certain antisense oligonucleotides from Table 3 were also retested”
These gapmers were designed by creating gapmers shifted slightly upstream and downstream (i.e. “microwalk”) of the original gapmers from Table 7. Gapmers were also created with various motifs, e.g. 5-10-5 MOE, 3-14-3 MOE, and 2-13-5 MOE. These gapmers were tested in vitro. Cultured HepB3 cells at a density of 4,000 cells per well were transfected using lipofectin reagent with 50 nM antisense oligonucleotide. After a treatment period of approximately 24 hours, RNA was isolated from the cells and Factor 7 mRNA levels were measured by real-time RT-PCR. Factor 7 mRNA levels were adjusted according to total RNA content, as measured by RIBOGREEN®. Results are presented as percent inhibition of Factor 7, relative to untreated control cells.

| Substance | inhibited Factor 7 mRNA expression by at least |
| --- | --- |
| 422089 (antisense eG*eT*e[5mC]*eA*eG*dG*dG*d[5mC]*dT*dG*dG*dT*dT*dT*dT*eG*eG*eA*eG*eG) [compound 422089] | at least 20% |
| 422170 (antisense eG*e[5mC]*eT*dG*dA*dG*dG*dA*dG*dA*d[5mC]*dA*dA*dT*dG*dG*dT*e[5mC]*eA*eG) [compound 422170] | at least 20% |
| 422202 (antisense eA*eG*e[5mC]*d[5mC]*dT*dG*dA*dG*dG*d[5mC]*d[5mC]*dA*dG*d[5mC]*dA*dG*dA*eT*e[5mC]*eA) [compound 422202] | at least 40% |
| 422210 (antisense e[5mC]*eA*eG*d[5mC]*dA*d[5mC]*dA*d[5mC]*dA*dT*dG*dG*dA*dG*dT*d[5mC]*dA*eG*e[5mC]*eA) [compound 422210] | at least 20% |
| 422223 (antisense eG*eA*eG*d[5mC]*d[5mC]*d[5mC]*dG*dA*dG*dT*dT*d[5mC]*dT*dG*d[5mC]*dA*dG*eG*eA*eG) [compound 422223] | at least 40% |
| 422226 (antisense e[5mC]*eA*dT*dG*dG*dT*dG*dA*dT*dG*d[5mC]*dT*dT*d[5mC]*dT*eG*eA*eA*eT*eT) [compound 422226] | at least 40% |
| 422231 (antisense eT*e[5mC]*dA*dG*dG*dG*d[5mC]*dT*dG*dG*dT*dT*dT*dT*dG*eG*eA*eG*eG*eA) [compound 422231] | at least 20% |
| 422245 (antisense eT*eG*dA*dG*dG*dA*dG*dA*d[5mC]*dA*dA*dT*dG*dG*dT*e[5mC]*eA*eG*eG*eG) [compound 422245] | at least 20% |
| 422256 (antisense e[5mC]*eA*d[5mC]*d[5mC]*d[5mC]*dG*d[5mC]*d[5mC]*dG*dG*d[5mC]*dT*d[5mC]*dT*dG*e[5mC]*eT*e[5mC]*eA*eT) [compound 422256] | at least 20% |
| 422282 (antisense eA*eG*d[5mC]*dA*dG*d[5mC]*d[5mC]*dT*dG*dA*dG*dG*d[5mC]*d[5mC]*dA*eG*e[5mC]*eA*eG*eA) [compound 422282] | at least 40% |
